No constants are given. Whether binding was seen depends on the method and setting. In cells and extracts the contact can be indirect.
Target: GST-IκBα (UniProt P25963)
Assay: pull-down; as a5, but in the presence of 100 μM PSA for 1 h; only the target purified

Chains of the proteins cited; added tags and fusions are not shown.
UniProt P25963: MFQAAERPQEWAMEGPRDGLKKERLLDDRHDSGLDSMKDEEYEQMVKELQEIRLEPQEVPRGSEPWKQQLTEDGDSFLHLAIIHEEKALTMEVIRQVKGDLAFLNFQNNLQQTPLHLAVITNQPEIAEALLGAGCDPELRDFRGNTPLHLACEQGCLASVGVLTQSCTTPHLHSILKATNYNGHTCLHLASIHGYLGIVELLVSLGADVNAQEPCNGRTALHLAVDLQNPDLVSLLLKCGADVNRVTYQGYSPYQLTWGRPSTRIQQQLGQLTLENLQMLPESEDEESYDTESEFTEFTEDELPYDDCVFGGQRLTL
UniProt Q04206: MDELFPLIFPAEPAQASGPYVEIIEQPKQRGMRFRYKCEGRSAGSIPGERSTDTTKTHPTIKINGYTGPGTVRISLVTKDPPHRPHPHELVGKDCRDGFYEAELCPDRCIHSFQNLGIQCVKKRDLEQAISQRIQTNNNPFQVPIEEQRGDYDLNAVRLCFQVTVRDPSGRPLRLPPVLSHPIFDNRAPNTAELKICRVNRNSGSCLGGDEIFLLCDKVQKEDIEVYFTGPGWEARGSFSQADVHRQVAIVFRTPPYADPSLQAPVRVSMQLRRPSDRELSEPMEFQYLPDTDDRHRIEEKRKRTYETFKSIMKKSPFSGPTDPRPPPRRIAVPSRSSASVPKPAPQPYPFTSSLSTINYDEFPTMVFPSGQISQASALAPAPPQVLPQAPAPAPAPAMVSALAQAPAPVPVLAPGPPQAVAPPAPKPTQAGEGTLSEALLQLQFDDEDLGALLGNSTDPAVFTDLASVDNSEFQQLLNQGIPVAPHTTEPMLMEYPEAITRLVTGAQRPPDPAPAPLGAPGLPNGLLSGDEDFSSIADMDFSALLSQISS

endogenous p65 (from UniProt Q04206 1-551)
binding: no binding (condition: with 100 μM PSA for 1 h)

Source: publication PMC8050912
